According to patent US20160272968A1:
Results are given in words; binding and its absence hold for the method and conditions named. Binding seen in cells or lysates may run through a third protein. Some binding calls cover weakened binding; strength is not graded here.

Sequences of proteins named here, by UniProt entry; tags and fusion partners are left off. Residues count along the entry.
UniProt P61810, residues 2-307: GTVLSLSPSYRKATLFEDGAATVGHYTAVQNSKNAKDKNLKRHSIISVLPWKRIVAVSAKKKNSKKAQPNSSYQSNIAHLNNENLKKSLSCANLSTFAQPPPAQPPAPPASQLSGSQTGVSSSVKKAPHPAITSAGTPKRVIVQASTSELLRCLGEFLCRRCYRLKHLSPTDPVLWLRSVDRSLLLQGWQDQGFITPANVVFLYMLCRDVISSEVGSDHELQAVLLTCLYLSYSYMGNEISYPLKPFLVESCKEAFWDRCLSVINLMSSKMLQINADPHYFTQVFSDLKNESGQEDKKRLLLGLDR

Tests used:
[1] = target: Cdk5 activator subunit p35/p25 (rat) (UniProt P61810); assay: co-immunoprecipitation from neuron lysates, Western blot (FIG. 7)
[2] = target: Cdk5 activator subunit p35/p25 (rat) (UniProt P61810); assay: co-immunoprecipitation from neuron lysates with anti-p35/25 antibody, Western blot for Cdk5
[3] = target: Cdk5 activator subunit p35/p25 (rat) (UniProt P61810); assay: co-immunoprecipitation from primary cortical neuron lysates with anti-p35/p25 antibody, Western blot for Cdk5

binding [1]: binds
binding [2]: binds
binding [3]: binds
Substance: cyclin dependent kinase 5 (Cdk5) (from UniProt Q03114 1-292) (enzyme)
